Values from PubChem BioAssay AID743121 (NCATS, 2013)

Screen: 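Partners whose loss is lethal together with topoisomerase I blockade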 (primary screen)
System: MDA-MB-231 cells, a human breast cancer line
Reagent: single siRNA against human genes, 20 nM siRNA (0.8 pmol per well)
Duration: 120 h (drug added 48 h after transfection, read 72 h later)
Treatment: camptothecin 20 nM (about EC30) for 72 h; vehicle 0.1% DMSO in parallel plates
Measured: 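CellTiter-Glo ATP signal, scaled to control siRNA as percent viability; sensitisation given as log2 of untreated divided by camptothecin-treated viability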
Reading the numbers: log2 vehicle/camptothecin viability: higher = stronger sensitisation to camptothecin; viability with camptothecin and viability without drug: higher = more viable cells
Call rule: 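Each gene scored by redundant siRNA activity (RSA) over its individual siRNA ratios; a gene is called active at p < 0.001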
The whole screen tested about 26,000 reagents; this is an unselected part. 167 of all reagents (0.63%) were called active. 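Calls are per gene from RSA p-values that are not deposited; an individual active-marked siRNA can sensitise only weakly.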 A number with no mark means an inactive call.

log2 vehicle/camptothecin viability,viability with camptothecin (% of control),viability without drug (% of control),gene knocked down,PubChem SID
-0.0118,56.2,55.7,MND1 (meiotic nuclear divisions 1),SID164542779
-0.0745,96.7,91.8,MND1 (meiotic nuclear divisions 1),SID164542781
-0.3,82.4,66.9,MND1 (meiotic nuclear divisions 1),SID164542783
0.0914,79.4,84.6,MND1 (meiotic nuclear divisions 1),SID164542784
-0.387,57.4,43.9,CALM3 (calmodulin 3),SID164356354
0.0471,87.8,90.7,CALM3 (calmodulin 3),SID164356355
0.0315,91.2,93.3,CALM3 (calmodulin 3),SID164356358
0.0228,111,113,CALM3 (calmodulin 3),SID164356359
-0.103,75.1,69.9,"TAP2 (transporter 2, ATP binding cassette subfamily B member)",SID164390826
0.329,37.2,46.7,"TAP2 (transporter 2, ATP binding cassette subfamily B member)",SID164390828
0.755,43.1,72.8,"TAP2 (transporter 2, ATP binding cassette subfamily B member)",SID164390829
0.316,47.3,58.9,"TAP2 (transporter 2, ATP binding cassette subfamily B member)",SID164390833
0.105,23.3,25.1,ETFBKMT,SID164605385
-0.112,114,106,ETFBKMT,SID164605386
0.237,15.6,18.4,ETFBKMT,SID164605387
-0.317,116,93.2,ETFBKMT,SID164605388
-0.609,78.2,51.3,CBX4 (chromobox 4),SID164398249
-0.411,65.3,49.1,CBX4 (chromobox 4),SID164398251
-0.463,75.1,54.5,CBX4 (chromobox 4),SID164398253
-0.43,105,77.9,SPO11 (SPO11 initiator of meiotic double strand breaks),SID164449205
0.662,22.9,36.3,SPO11 (SPO11 initiator of meiotic double strand breaks),SID164449207
0.0308,45.1,46.1,SPO11 (SPO11 initiator of meiotic double strand breaks),SID164449209
-0.051,74,71.5,SPO11 (SPO11 initiator of meiotic double strand breaks),SID164449210
0.0777,76.1,80.4,GPR12 (G protein-coupled receptor 12),SID164367291
-0.388,88.8,67.9,GPR12 (G protein-coupled receptor 12),SID164367293
-0.2,35.6,31,GPR12 (G protein-coupled receptor 12),SID164367294
-0.452,57.1,41.8,GPR12 (G protein-coupled receptor 12),SID164367295
0.336,32.1,40.6,NKTR (natural killer cell triggering receptor),SID164378042
-0.0355,67,65.4,NKTR (natural killer cell triggering receptor),SID164378044
-0.228,89.3,76.2,NKTR (natural killer cell triggering receptor),SID164378045
-0.241,104,88.4,LIN7C (lin-7 cell polarity scaffold C),SID164484429
-0.0806,64.1,60.6,LIN7C (lin-7 cell polarity scaffold C),SID164484430
-0.032,104,102,LIN7C (lin-7 cell polarity scaffold C),SID164484431
-0.156,85.3,76.5,LIN7C (lin-7 cell polarity scaffold C),SID164484432
0.196,113,129,CX3CR1 (C-X3-C motif chemokine receptor 1),SID164360571
-0.0498,93.7,90.5,CX3CR1 (C-X3-C motif chemokine receptor 1),SID164360572
-0.206,64,55.5,CX3CR1 (C-X3-C motif chemokine receptor 1),SID164360573
-0.267,96.5,80.2,CX3CR1 (C-X3-C motif chemokine receptor 1),SID164360574
-0.426,79.6,59.3,FRS3 (fibroblast growth factor receptor substrate 3),SID164413650
0.129,73.1,79.9,FRS3 (fibroblast growth factor receptor substrate 3),SID164413652
0.0343,94.7,96.9,FRS3 (fibroblast growth factor receptor substrate 3),SID164413654
-0.518,67.1,46.9,FRS3 (fibroblast growth factor receptor substrate 3),SID164413656
-0.139,95.5,86.8,PHEX (phosphate regulating endopeptidase X-linked),SID164380541
-0.318,53.7,43.1,PHEX (phosphate regulating endopeptidase X-linked),SID164380542
-0.639,112,72,PHEX (phosphate regulating endopeptidase X-linked),SID164380545
-0.482,57.8,41.4,PHEX (phosphate regulating endopeptidase X-linked),SID164380546
0.0417,91.9,94.6,TUBE1 (tubulin epsilon 1),SID164472390
0.0991,98.4,105,TUBE1 (tubulin epsilon 1),SID164472391
0.947,3.64,7.01,TUBE1 (tubulin epsilon 1),SID164472392
-0.511,95.6,67.1,TUBE1 (tubulin epsilon 1),SID164472396
-0.337,84,66.5,LZTS2 (leucine zipper tumor suppressor 2),SID164544949
-0.0847,39.7,37.5,LZTS2 (leucine zipper tumor suppressor 2),SID164544950
-0.499,59.5,42.1,LZTS2 (leucine zipper tumor suppressor 2),SID164544952
1.17,6.68,15.1,LZTS2 (leucine zipper tumor suppressor 2),SID164544954
-0.111,73.8,68.3,GFRAL (GDNF family receptor alpha like),SID164678581
-0.28,109,89.6,GFRAL (GDNF family receptor alpha like),SID164678583
-0.365,37.6,29.2,GFRAL (GDNF family receptor alpha like),SID164678586
-0.385,90.6,69.4,GFRAL (GDNF family receptor alpha like),SID164678587
-0.267,62.1,51.6,G6PC3 (glucose-6-phosphatase catalytic subunit 3),SID164551980
-0.125,69.4,63.7,G6PC3 (glucose-6-phosphatase catalytic subunit 3),SID164551981
-0.714,69.1,42.1,G6PC3 (glucose-6-phosphatase catalytic subunit 3),SID164551982
-0.204,5.92,5.14,G6PC3 (glucose-6-phosphatase catalytic subunit 3),SID164551983
-0.428,36.2,26.9,PRKCB (protein kinase C beta),SID164382581
0.224,78.7,91.9,PRKCB (protein kinase C beta),SID164382582
-0.284,89.6,73.6,PRKCB (protein kinase C beta),SID164382585
-0.375,117,90,PRKCB (protein kinase C beta),SID164382586
-0.718,69.6,42.3,MST1R (macrophage stimulating 1 receptor),SID164376205
0.289,32.6,39.8,MST1R (macrophage stimulating 1 receptor),SID164376207
-0.142,49.4,44.8,MST1R (macrophage stimulating 1 receptor),SID164376208
0.0768,60.2,63.4,MST1R (macrophage stimulating 1 receptor),SID164376209
-0.221,88.1,75.6,DSG1 (desmoglein 1),SID164362223
0.0949,90.9,97.1,DSG1 (desmoglein 1),SID164362226
-0.0742,41.1,39.1,DSG1 (desmoglein 1),SID164362228
0.0739,74.4,78.3,UNC13A (unc-13 homolog A),SID164445095
-0.0924,109,102,UNC13A (unc-13 homolog A),SID164445097
-0.271,92.1,76.3,UNC13A (unc-13 homolog A),SID164445098
-0.494,81.2,57.6,UNC13A (unc-13 homolog A),SID164445100
-0.0135,56.7,56.2,BPIFB3 (BPI fold containing family B member 3),SID164660947
-0.576,84.5,56.7,BPIFB3 (BPI fold containing family B member 3),SID164660948
-0.138,73.7,67,BPIFB3 (BPI fold containing family B member 3),SID164660949
-0.348,133,104,BPIFB3 (BPI fold containing family B member 3),SID164660950
-0.254,107,89.6,BRINP2 (BMP/retinoic acid inducible neural specific 2),SID164496302
0.086,67.6,71.7,BRINP2 (BMP/retinoic acid inducible neural specific 2),SID164496307
-0.417,23,17.2,BRINP2 (BMP/retinoic acid inducible neural specific 2),SID164496308
-0.224,120,103,MS4A10 (membrane spanning 4-domains A10),SID164658624
-0.104,93.9,87.4,MS4A10 (membrane spanning 4-domains A10),SID164658625
0.57,59.3,88.1,MS4A10 (membrane spanning 4-domains A10),SID164658626
-0.239,133,112,MS4A10 (membrane spanning 4-domains A10),SID164658627
